Test results from the supplement of paper PMC12009310.
Counter-ions that a name gives are not always drawn. ± gives the standard deviation of the averaged measurements. The list shows a part of the results. Part of the spread comes from offsets between plates or batches.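 The cells are a mouse kidney inner medullary collecting duct line, silenced either for the ciliary gene Rpgrip1l or with a non-targeting control siRNA. Primary scores are means of two runs against batch controls; in the follow-up screen a hit raised cilia by at least 2 over its matching control, and compounds dropping cell number by 2 or more were excluded. The cells are a mouse kidney inner medullary collecting duct line, silenced either for the ciliary gene Rpgrip1l or with a non-targeting control siRNA.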

Legend:
mIMCD3 [1] = test: robust z score of cell number vs plate controls; higher = more cells (less cytotoxic); details: 10 µM, 48 h
mIMCD3 [2] = test: robust z cell number difference from vehicle control (robust z score difference); higher = more cells; details: 10 µM, 48 h
mIMCD3 [3] = test: robust z score of cilia incidence (% cells with single cilium) vs plate controls; higher = more ciliated cells; details: 10 µM; 48 h; siRNA: siScr
mIMCD3 [4] = test: robust z cilia incidence difference from vehicle control (robust z score difference); higher = more ciliated cells; details: 10 µM; 48 h; siRNA: siScr
mIMCD3 [5] = test: robust z cilia incidence difference from vehicle control (robust z score difference); higher = more ciliated cells (rescue); details: 10 µM; 48 h; siRNA: siRpgrip1l
mIMCD3 [6] = test: robust z score of cilia incidence (% cells with single cilium) vs plate controls; higher = more ciliated cells (rescue of cilia loss); details: 10 µM; 48 h; siRNA: siRpgrip1l

| Structure (SMILES) | robust z score of cell number (mIMCD3 [1]; siRNA: siRpgrip1l) | robust z score of cell number (mIMCD3 [1]; siRNA: siScr) | robust z cell number difference (mIMCD3 [2]; siRNA: siRpgrip1l) | robust z cell number difference (mIMCD3 [2]; siRNA: siScr) | robust z score of cilia incidence (mIMCD3 [3]) | robust z cilia incidence difference (mIMCD3 [4]) | robust z cilia incidence difference (mIMCD3 [5]) | robust z score of cilia incidence (mIMCD3 [6]) |
| --- | --- | --- | --- | --- | --- | --- | --- | --- |
| Nc1nc(NCCc2ccc(O)cc2)nc2nc(-c3ccco3)nn12 | -27.3 ± 21 | -9.77 ± 0.41 | -15.9 | -9.62 ± 9.3 | -7.12 ± 0.18 | -7.45 ± 12 | -36.7 | -23.687 ± 0.0089 |
| Nc1cc(N2CCCCC2)nc(N)[n+]1[O-] [Minoxidil] | -6.55 ± 4.8 | 1.53 ± 3.5 | 3.29 | 3.3 ± 6 | 1.27 ± 0.028 | -3.07 ± 8.2 | -0.774 | -6.07 ± 6.7 |
| CC1Nc2ccc(Cl)cc2S(=O)(=O)N1 (configuration not stated) | -5.15 ± 4.7 | -2.95 ± 0.91 | -1.89 | -1.5 ± 2.5 | 0.967 ± 0.13 | 2.02 ± 3.9 | -0.609 | -11.9 ± 2.7 |
| NC1CCN(c2cccc(Cl)n2)CC1 | -0.931 ± 0.71 | -3.67 ± 3.1 | -12 | -0.707 ± 2.2 | 7 ± 2.8 | 2.78 ± 0.074 | -21.5 | -5.42 ± 2.5 |
| O=S(=O)(c1cccc2cnccc12)N1CCCNCC1 [Fasudil hydrochloride] | -5.11 ± 5.5 | 11.1 ± 12 | 1.87 | -0.00406 ± 0.72 | 3.95 ± 0.97 | -4.47 ± 8.5 | 5.34 | -3.19 ± 0.94 |
| CC(=O)N1CCN(C)CC1 [1-Acetyl-4-methylpiperazine hydrochloride] | 11.4 ± 8.4 | -2.24 ± 3.1 | 2.35 | 3.6 ± 2.9 | 1.84 ± 1.8 | -4.29 ± 8.2 | 0.729 | -2.04 ± 3.4 |
| COc1cc(OC)c(C(=O)CCCCN2CCC3(CC2)NC(=O)NC3=O)cc1NS(=O)(=O)c1ccc(C(F)(F)F)cc1 | -10.2 ± 11 | -1.93 ± 0.13 | 1.9 | 0.761 ± 2.9 | 1.84 ± 0.67 | 2.72 ± 1.8 | 3.71 | -9.68 ± 0.74 |
| N=C(N)c1ccc(N2CCN(C3CCN(CC(=O)O)CC3)CC2)cc1 | -7.31 ± 1.4 | -2.09 ± 0.27 | 1.03 | -1.01 ± 5.9 | 4.38 ± 3.5 | 3.89 ± 3.2 | 5.17 | -6.19 ± 1.9 |
| O=c1cc(N2CCOCC2)oc2c(-c3ccccc3)cccc12 | -26.3 ± 20 | -9.07 ± 1.5 |  |  | 0.331 ± 0.94 |  |  | -11.5 ± 6.4 |
| CCN(CC)CCCC(C)Nc1nc(C)cc(Nc2ccc3nc(C)cc(N)c3c2)n1 (configuration not stated) | -0.795 ± 1.4 | -0.789 ± 4.1 |  |  | -2.22 ± 0.28 |  |  | -8.76 ± 9.3 |
